# In publication PMC7734590, “Identification of a Selective RelA Inhibitor Based on DSE-FRET Screening Methods” (International Journal of Molecular Sciences, 2020):
# Assay: Autofluorescence of compound in DSE-FRET
substance,measurement,setting,value
SN 38,自家蛍光 (autofluorescence) @ 10 mM Run1,"Run1, 10 mM as printed",2.8
same,自家蛍光 (autofluorescence) @ 10 mM Run2,"Run2, 10 mM as printed",3.0
same,自家蛍光 (autofluorescence) @ 10 mM Avg.,"average, 10 mM",2.9
